From article PMC11963297
No constants are given. Whether binding was seen depends on the method and setting. In cells and extracts the contact can be indirect. A result given as binding can be weak or reduced; the word gives no strength. For some assays here: Tags and fused reporters may be left off the sequences shown.

What was measured:
[1] = biological target: T1, C-terminally mNeonGreen-tagged human GIT1, transcript variant 1 (GIT1-NG) (human) (UniProt Q9Y2X7); assay: co-IP; whole-cell extracts of cells expressing GIT1-NG, GIT2-NG or NG alone; precipitation with anti-NG Ab or, reciprocally, anti-γ-tubulin Ab on protein A beads; immunoblot
T1 sequence: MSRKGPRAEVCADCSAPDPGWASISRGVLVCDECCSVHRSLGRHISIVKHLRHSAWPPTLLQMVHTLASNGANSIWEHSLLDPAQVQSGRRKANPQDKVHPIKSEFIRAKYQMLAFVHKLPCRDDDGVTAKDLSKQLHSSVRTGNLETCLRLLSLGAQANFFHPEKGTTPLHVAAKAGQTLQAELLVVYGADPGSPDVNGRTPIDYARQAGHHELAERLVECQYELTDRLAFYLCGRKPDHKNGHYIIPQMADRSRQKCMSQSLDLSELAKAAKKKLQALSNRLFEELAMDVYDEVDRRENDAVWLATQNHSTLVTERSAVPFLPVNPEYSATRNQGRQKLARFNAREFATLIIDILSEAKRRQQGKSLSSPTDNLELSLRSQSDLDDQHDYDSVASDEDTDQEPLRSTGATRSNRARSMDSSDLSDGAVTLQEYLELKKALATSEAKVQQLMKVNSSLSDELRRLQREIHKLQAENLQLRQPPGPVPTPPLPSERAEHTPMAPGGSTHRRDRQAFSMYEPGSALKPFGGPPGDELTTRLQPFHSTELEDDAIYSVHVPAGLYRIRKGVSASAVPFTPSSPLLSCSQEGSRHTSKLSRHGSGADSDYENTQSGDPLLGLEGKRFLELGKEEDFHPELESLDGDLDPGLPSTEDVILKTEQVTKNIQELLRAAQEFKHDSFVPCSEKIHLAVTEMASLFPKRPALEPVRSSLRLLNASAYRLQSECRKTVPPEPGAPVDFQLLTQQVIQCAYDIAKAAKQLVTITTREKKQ

[2] = biological target: T2, C-terminally mNeonGreen-tagged human GIT2, transcript variant 1 (GIT2-NG) (human) (UniProt Q14161); assay: as above
T2 sequence: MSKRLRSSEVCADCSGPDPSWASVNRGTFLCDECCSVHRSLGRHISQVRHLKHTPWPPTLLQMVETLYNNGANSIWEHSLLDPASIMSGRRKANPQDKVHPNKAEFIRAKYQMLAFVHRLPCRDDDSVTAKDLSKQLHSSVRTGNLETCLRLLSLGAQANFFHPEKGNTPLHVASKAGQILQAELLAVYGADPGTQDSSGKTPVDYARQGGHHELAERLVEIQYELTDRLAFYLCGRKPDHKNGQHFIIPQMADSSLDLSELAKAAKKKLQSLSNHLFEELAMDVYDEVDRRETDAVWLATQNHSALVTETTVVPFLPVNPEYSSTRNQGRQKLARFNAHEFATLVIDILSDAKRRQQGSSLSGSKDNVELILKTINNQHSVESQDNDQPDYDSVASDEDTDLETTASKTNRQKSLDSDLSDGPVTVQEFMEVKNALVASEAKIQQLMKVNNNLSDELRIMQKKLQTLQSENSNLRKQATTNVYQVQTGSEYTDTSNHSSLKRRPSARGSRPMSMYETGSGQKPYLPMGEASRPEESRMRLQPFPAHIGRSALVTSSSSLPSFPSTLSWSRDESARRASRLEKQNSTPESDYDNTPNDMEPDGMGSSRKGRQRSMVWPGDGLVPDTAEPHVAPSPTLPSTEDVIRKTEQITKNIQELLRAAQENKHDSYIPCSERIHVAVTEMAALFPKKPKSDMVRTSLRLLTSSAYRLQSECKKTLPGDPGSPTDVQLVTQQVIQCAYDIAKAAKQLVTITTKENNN

[3] = biological target: T3, GST-tagged N-terminal ArfGAP domain of human GIT2, residues 1-124 (GST-GIT2(1-124)) (human) (UniProt Q14161); assay: pull-down; GST-fusion proteins or GST alone immobilised on Glutathione-Sepharose and incubated with whole-cell extracts of U-251 MG cells; immunoblot; only the target purified
T3 sequence: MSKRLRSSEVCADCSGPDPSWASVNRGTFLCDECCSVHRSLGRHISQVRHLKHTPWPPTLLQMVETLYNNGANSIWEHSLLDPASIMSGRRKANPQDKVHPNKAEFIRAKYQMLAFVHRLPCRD

[4] = biological target: T4, N-terminally GST-tagged full-length human GIT1 (GST-GIT1) (human) (UniProt Q9Y2X7); assay: as above
T4 sequence: T1 sequence

[5] = biological target: T5, N-terminally GST-tagged full-length human GIT2 (tv1) (GST-GIT2) (human) (UniProt Q14161); assay: as above
T5 sequence: T2 sequence

[6] = biological target: T6, G protein-coupled receptor kinase-interacting protein 1 (GIT1), endogenous (human (endogenous in U-251 MG)) (UniProt Q9Y2X7); assay: co-IP; whole-cell extracts of U-251 MG cells (HEPES buffer with 1% NP-40, protease and phosphatase inhibitors) incubated with protein A beads preloaded with rabbit Ab to GIT1, GIT2 or PKCα or mAb TU-31 to γ-tubulin; immunoblot; endogenous proteins
T6 sequence: T1 sequence

[7] = biological target: T7, G protein-coupled receptor kinase-interacting protein 2 (GIT2), endogenous (human (endogenous in U-251 MG)) (UniProt Q14161); assay: as above
T7 sequence: T2 sequence

[8] = biological target: protein kinase C alpha (PKCα), endogenous (human (endogenous in U-251 MG)) (UniProt P17252); assay: as above

Measured: binding

γ-tubulin, endogenous (from UniProt P23258)
binds: all assays above
